Article doi:10.1101/322610
No constants are given. Whether binding was seen depends on the method and setting. In cells and extracts the contact can be indirect. Some entries that bind do so weakly or less than the wild type.

Chains of the proteins cited; added tags and fusions are not shown.
UniProt Q3V3Q7: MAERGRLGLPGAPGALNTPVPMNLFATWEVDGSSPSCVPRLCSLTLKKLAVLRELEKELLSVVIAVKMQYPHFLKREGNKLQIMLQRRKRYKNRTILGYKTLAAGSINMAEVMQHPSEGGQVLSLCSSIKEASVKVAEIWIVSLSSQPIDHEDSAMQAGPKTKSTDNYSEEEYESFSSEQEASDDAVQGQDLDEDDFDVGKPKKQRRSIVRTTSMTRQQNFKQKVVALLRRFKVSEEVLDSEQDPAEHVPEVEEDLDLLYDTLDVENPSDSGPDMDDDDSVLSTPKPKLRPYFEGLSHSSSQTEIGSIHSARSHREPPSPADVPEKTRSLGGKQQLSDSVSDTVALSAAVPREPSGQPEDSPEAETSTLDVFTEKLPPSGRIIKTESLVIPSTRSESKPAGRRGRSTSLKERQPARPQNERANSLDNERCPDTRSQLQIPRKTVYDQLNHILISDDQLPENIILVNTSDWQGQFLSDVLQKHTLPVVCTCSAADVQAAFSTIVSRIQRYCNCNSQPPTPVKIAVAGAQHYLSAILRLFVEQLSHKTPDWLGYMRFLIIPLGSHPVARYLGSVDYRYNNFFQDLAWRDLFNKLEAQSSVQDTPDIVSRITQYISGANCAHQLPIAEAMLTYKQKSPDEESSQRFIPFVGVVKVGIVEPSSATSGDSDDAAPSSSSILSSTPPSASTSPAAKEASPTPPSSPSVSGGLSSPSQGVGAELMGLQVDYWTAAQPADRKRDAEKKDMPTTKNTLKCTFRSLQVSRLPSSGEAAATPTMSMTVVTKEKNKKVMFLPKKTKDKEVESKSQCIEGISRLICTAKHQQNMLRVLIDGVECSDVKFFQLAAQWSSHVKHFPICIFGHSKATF

Molecular target: phosphofurin acidic cluster sorting protein 2 (mouse) (mouse (endogenous in hippocampus)) (UniProt Q3V3Q7)
Assay: co-IP

binding: binds
B1: mfn2 (mouse) (protein, UniProt Q80U63 1-757)
chain: MSLLFSRCNSIVTVKKDKRHMAEVNASPLKHFVTAKKKINGIFEQLGAYIQESASFLEDTHRNTELDPVTTEEQVLDVKGYLSKVRGISEVLARRHMKVAFFGRTSNGKSTVINAMLWDKVLPSGIGHTTNCFLRVGGTDGHEAFLLTEGSEEKKSVKTVNQLAHALHQDEQLHAGSMVSVMWPNSKCPLLKDDLVLMDSPGIDVTTELDSWIDKFCLDADVFVLVANSESTLMQTEKQFFHKVSERLSRPNIFILNNRWDASASEPEYMEEVRRQHMERCTSFLVDELGVVDRAQAGDRIFFVSAKEVLSARVQKAQGMPEGGGALAEGFQVRMFEFQNFERQFEECISQSAVKTKFEQHTVRAKQIAEAVRLIMDSLHIAAQEQRVYCLEMREERQDRLRFIDKQLELLAQDYKLRIKQITEEVERQVSTAMAEEIRRLSVLVDEYQMDFHPSPVVLKVYKNELHRHIEEGLGRNLSDRCSTAIASSLQTMQQDMIDGLKPLLPVSMRNQIDMLVPRQCFSLSYDLNCDKLCADFQEDIEFHFSLGWTMLVNRFLGPKNSRRALLGYSDQVQRPLPLTPANPSMPPLPQSSLTQEELMVSMVTGLASLTSRTSMGILVVGGVVWKAVGWRLIALSFGLYGLLYVYERLTWTTKAKERAFKRQFVEYASEKLQLIISYTGSNCSHQVQQELSGTFAHLCQQVDITRDNLEQEIAAMNKKVEALDSLQSRAKLLRNKAGWLDSELNMFTHQYLQPSR
